1 molecule from patent US20230152323A1 (NORDIC BIOSCIENCE A S, published 2023) can be followed below.

These are yes or no findings as the source states them, for the method shown. Some binding calls cover weakened binding; strength is not graded here.

This assay addresses T1, SPARC-M, the MMP-generated fragment of SPARC with the N-terminus … (human) (UniProt P09486).
T1 sequence (looked up): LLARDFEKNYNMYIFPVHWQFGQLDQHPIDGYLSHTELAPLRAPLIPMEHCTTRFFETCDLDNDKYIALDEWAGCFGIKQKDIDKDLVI
Description: competitive SPARC-M ELISA on MMP digests of recombinant human SPARC.

B1: SPARC-M monoclonal antibody (antibody, mouse IgG1, kappa, V domains shown)
VH: EVKLVESGGGLVKPGGSLKLSCAASGFTFSRNAMSWVRQTPEKRLEWVASISTSDNTYYPDSVKGRFTISKDNARNILYLQMSSLRSEDTAMYYCASGFDVGAYWGQGTLVTVSA
VL: DVLMTQTPLSLPVSLGDQASISCRSSQSIVHSNGNTYLEWYLQKPGQSPKLLIYKVSNRFSGVPDRFSGSGSGTDFTLKISRVDTEDLGVYYCFQGSHVPLTFGAGTKLELKR
notes: also called the antibody; the selected antibody
As for B1, the binding result is listed as “binds”.
